PubChem BioAssay AID504808 | Drosophila RNAi Screening Center – 2011
The deposit covers about 21,000 reagents; shown is a random part of those with a known target gene and a result. Over the whole deposit, 18 (0.084%) got an active call. 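Raw counts without plate normalisation, one of two replicates; the ratio scores behind the calls were not deposited.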 A plus sign joins genes that one reagent is predicted to hit. Not stated in the record: the amount of reagent, the time to read-out.

Screen: 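Fly genes required to hold E2F transcription in check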 (primary screen)
System: Drosophila S2 cells
Reagent: long dsRNA against Drosophila genes
Detection: 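Firefly luciferase driven by E2F sites, normalised to Renilla luciferase on the same minimal promoter, measured by plate reader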
Scale: E2F firefly: higher = more E2F reporter activity; Renilla normaliser: higher = more normaliser reporter signal
Active means: 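a knock-down counted as active when the firefly/Renilla E2F signal rose above 50%, a threshold chosen arbitrarily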

Fer2 [DRSC15925] → E2F firefly, rep 1 = 1.11e5; Renilla normaliser, rep 1 = 5606; outcome = inactive
Obp56b [DRSC06551] → E2F firefly, rep 1 = 1.38e5; Renilla normaliser, rep 1 = 4865; outcome = inactive
CG33919 [DRSC04940] → E2F firefly, rep 1 = 1.43e5; Renilla normaliser, rep 1 = 4997; outcome = inactive
feo [DRSC19398] → E2F firefly, rep 1 = 61219; Renilla normaliser, rep 1 = 3258; outcome = inactive
18w [DRSC05029] → E2F firefly, rep 1 = 82263; Renilla normaliser, rep 1 = 3631; outcome = inactive
CG2444 [DRSC19846] → E2F firefly, rep 1 = 83597; Renilla normaliser, rep 1 = 5946; outcome = inactive
Ugt37B1 [DRSC03225] → E2F firefly, rep 1 = 1.55e5; Renilla normaliser, rep 1 = 5422; outcome = inactive
CG1789 [DRSC18140] → E2F firefly, rep 1 = 7582; Renilla normaliser, rep 1 = 884; outcome = inactive
CG7519 [DRSC11834] → E2F firefly, rep 1 = 1.44e5; Renilla normaliser, rep 1 = 7093; outcome = inactive
CG15765 [DRSC18071] → E2F firefly, rep 1 = 6321; Renilla normaliser, rep 1 = 760; outcome = inactive
Fkbp14 [DRSC04615] → E2F firefly, rep 1 = 82395; Renilla normaliser, rep 1 = 3481; outcome = inactive
CG12766 [DRSC08295] → E2F firefly, rep 1 = 94368; Renilla normaliser, rep 1 = 4583; outcome = inactive
RpS28a [DRSC15064] → E2F firefly, rep 1 = 1.06e5; Renilla normaliser, rep 1 = 6263; outcome = inactive
Spag1 [DRSC15331] → E2F firefly, rep 1 = 1.22e5; Renilla normaliser, rep 1 = 6770; outcome = inactive
Sfp53D [DRSC05625] → E2F firefly, rep 1 = 1.82e5; Renilla normaliser, rep 1 = 6866; outcome = inactive
GM130 [DRSC04617] → E2F firefly, rep 1 = 86391; Renilla normaliser, rep 1 = 3205; outcome = inactive
Ddx1 [DRSC11862] → E2F firefly, rep 1 = 74998; Renilla normaliser, rep 1 = 4015; outcome = inactive
CG12923 [DRSC06237] → E2F firefly, rep 1 = 1.55e5; Renilla normaliser, rep 1 = 4896; outcome = inactive
CG7492 [DRSC10855] → E2F firefly, rep 1 = 76966; Renilla normaliser, rep 1 = 3379; outcome = inactive
GlyT [DRSC04512] → E2F firefly, rep 1 = 92275; Renilla normaliser, rep 1 = 3902; outcome = inactive
CG12547 [DRSC07759] → E2F firefly, rep 1 = 97324; Renilla normaliser, rep 1 = 4146; outcome = inactive
CG7071 + Muted [DRSC16189] → E2F firefly, rep 1 = 1.38e5; Renilla normaliser, rep 1 = 6907; outcome = inactive
RpL15 [DRSC20963] → E2F firefly, rep 1 = 91469; Renilla normaliser, rep 1 = 5570; outcome = inactive
CG14253 [DRSC14748] → E2F firefly, rep 1 = 1.30e5; Renilla normaliser, rep 1 = 5893; outcome = inactive
CSN1b [DRSC11108] → E2F firefly, rep 1 = 69880; Renilla normaliser, rep 1 = 3290; outcome = inactive
CG5504 [DRSC04701] → E2F firefly, rep 1 = 81601; Renilla normaliser, rep 1 = 3850; outcome = inactive
CG4641 (retired record) [DRSC10439] → E2F firefly, rep 1 = 78221; Renilla normaliser, rep 1 = 3320; outcome = inactive
Mp20 [DRSC07474] → E2F firefly, rep 1 = 95701; Renilla normaliser, rep 1 = 4413; outcome = inactive
